Experimental data as given in US20220119541A1.
Residue numbers refer to the chain shown, from its start. No constants are given. Whether binding was seen depends on the method and setting. Some binding calls cover weakened binding; strength is not graded here. Blank lines part the entries; values can stand above or below the binder they belong to.

The chains behind the UniProt entries cited, without tags or fusion partners. Residues count along the entry.
UniProt Q9Y5U5, residues 26-241: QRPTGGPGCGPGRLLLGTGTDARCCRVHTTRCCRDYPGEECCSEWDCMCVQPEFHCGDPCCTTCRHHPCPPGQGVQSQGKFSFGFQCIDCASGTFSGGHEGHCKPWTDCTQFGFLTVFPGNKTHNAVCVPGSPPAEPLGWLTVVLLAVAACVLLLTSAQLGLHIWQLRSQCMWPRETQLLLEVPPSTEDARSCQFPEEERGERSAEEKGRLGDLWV

Experiments:
[1] = target: human GITR (full length, on cells) (human) (UniProt Q9Y5U5); assay: flow cytometry (FACS) on 293F-hGITR cells
[2] = target: human GITR (full length, on cells) (human) (UniProt Q9Y5U5); assay: FACS on 293F-hGITR cells, MFI [panel A]
[3] = target: human GITR (full length, on cells) (human) (UniProt Q9Y5U5); assay: flow cytometry (FACS) on spleen cells of humanized B-hGITR mice

B1: 3503-hab064 (antibody, V domains shown)
VH: QVQLVESGGGVVQPGRSLRLSCAASGFTFSSYGMHWVRQAPGKGLEWVAVIWYETSNKYYADSVKGRFTISRDNSKNTLYLQMNNLRAEDTAVYYCARYGGNSGWYWYFDLWGRGTLVTVSS
VL: DIQLTQSPSFLSASVGDRVTITCRASQGISSFLAWYQQKPGTAPKLLIYAASTLQSGVPSRFSGSGSGTEFTLTISSLQPEDFATYCCQQLNSYPFTFGQGTKLEIK
binding [1]: binds
binding [2]: binds

B2: 3503-hab070 (antibody, V domains shown)
VH: B1 VH with Y59F, A61V, N85S, G101A, N102S
VL: B1 VL with T42K
binding [1]: binds
binding [2]: binds

B3: 3503-hab070e1 (antibody, V domains shown)
VH: B1 VH with Y59F, A61V, N85S, G101A, N102S
VL: B1 VL with T42K, C87Y
binding [1]: binds
binding [2]: binds
binding [3]: binds

Results, then the binder that gave them:

binding [1]: binds
B4: 3503-mAb064 (antibody, V domains shown)
VH: B1 VH
VL: B1 VL

binding [1]: binds
B5: 3503-mAb070 (antibody, V domains shown)
VH: B1 VH with Y59F, A61V, N85S, G101A, N102S
VL: B1 VL with T42K
